Measured data: PubChem BioAssay AID493246 (Drosophila RNAi Screening Center, 2011)
Test: 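Identify essential fly genes by loss of cell viability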 (primary screen). System: Drosophila Kc and S2R+ cells. Reagents: long dsRNA against Drosophila genes. Read-out: 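Raw, unnormalised count of remaining cells in each well; per-plate z-scores of cell number underlie the calls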. Scale: Kc cell number and S2R+ cell number: higher = more cells remaining. Active means: 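Active when the per-plate z-score of cell number is 3 or more in the direction of fewer cells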.
The screen tested about 21,000 reagents; below is an unselected part of those that have a named target and a result. In the full data, 429 (2%) got an active call. 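Values are raw and not normalised between plates; calls rest on per-plate z-scores that were not deposited.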 Unmarked entries are inactive. Not given: the amount of reagent, the time to read-out.

Kc cell number, rep 1	Kc cell number, rep 2	S2R+ cell number, rep 1	S2R+ cell number, rep 2	target gene	PubChem SID
1.52e6	1.62e6	1.18e6	1.28e6	140up	SID104192426
1.50e6	1.51e6	1.10e6	1.20e6	Ir21a	SID104180320
6.45e5		9.14e5		ZAP3	SID104197644
1.66e6	1.57e6	1.06e6	1.18e6	ZAP3	SID104197645
1.66e6	1.64e6	1.00e6	1.14e6	ZAP3	SID104198041
1.24e6	1.34e6	1.02e6	9.99e5	OXA1L	SID104189464
1.33e6	1.38e6	7.52e5	8.62e5	CG7810	SID104182864
1.44e6	1.41e6	1.07e6	1.29e6	Fis1	SID104187564
1.70e6	1.84e6	1.22e6	1.30e6	Su(Tpl)	SID104190746
1.55e6	1.23e6	9.75e5	1.29e6	CG32277	SID104187988
1.60e6	1.54e6	1.09e6	1.27e6	CG7332	SID104199830
8.30e5 (active)	9.13e5	4.33e5	4.01e5	cad	SID104183294
1.90e6	2.13e6	1.07e6	1.16e6	CG5447	SID104195593
1.48e6	1.48e6	9.83e5	1.06e6	Cdlc2	SID104180535
1.66e6	1.66e6	1.14e6	1.31e6	mthl4	SID104186790
1.31e6	1.43e6	1.09e6	1.27e6	miple1	SID104188514
1.40e6	1.34e6	8.92e5	9.90e5	CG3546	SID104198100
4.31e5 (active)	9.99e5	4.28e5	5.32e5	orb	SID104196813
1.27e6	1.45e6	1.39e6	1.41e6	Tollo	SID104191097
1.46e6	1.45e6	9.80e5	1.10e6	CG14546	SID104194682
1.50e6	1.54e6	1.28e6	1.30e6	Spn77Ba	SID104190485
1.02e6	1.13e6	5.19e5	6.00e5	Dp	SID104187194
1.93e6	1.70e6	1.17e6	1.32e6	NdufV3	SID104199215
1.39e6	1.47e6	1.32e6	1.20e6	CG3868	SID104190172
1.66e6	1.46e6	1.17e6	1.27e6	Lsp1alpha	SID104200050
1.75e6	1.82e6	1.44e6	1.55e6	CG5665	SID104191575
1.41e6 (active)	1.33e6	6.94e5	6.63e5	mtgo	SID104182037
1.63e6	1.62e6	9.91e5	1.12e6	mtgo	SID104182038
1.46e6	1.54e6	1.37e6	1.37e6	mtgo	SID104182561
1.17e6	1.37e6	1.15e6	1.20e6	CG14866	SID104194781
1.48e6	1.44e6	1.37e6	1.43e6	CG14606	SID104192342
1.53e6	1.53e6	1.05e6	1.18e6	otu	SID104198603
1.49e6	1.50e6	1.16e6	1.25e6	mfas	SID104196789
1.47e6	1.66e6	1.26e6	1.38e6	Or85a	SID104196556
1.46e6	1.57e6	1.31e6	1.41e6	CG31550	SID104191989
1.59e6	1.76e6	1.41e6	1.44e6	CG31550	SID104191990
1.56e6	1.55e6	1.01e6	1.07e6	CG13640	SID104194431
1.65e6	1.48e6	1.22e6	1.17e6	Use1	SID104189972
1.41e6	1.47e6	1.08e6	1.14e6	PolA1	SID104196432
1.45e6	1.44e6	1.15e6	1.22e6	Su(var)3-7	SID104196664
1.41e6	1.48e6	9.61e5	1.07e6	CG31606	SID104180804
1.27e6	1.37e6	6.34e5	7.10e5	Ent2	SID104181916
1.42e6	1.41e6	1.19e6	1.24e6	CG9368	SID104190859
1.67e6	1.69e6	1.14e6	1.36e6	Nlg3	SID104192269
1.61e6	1.94e6	1.27e6	1.36e6	Nlg3	SID104192316
1.54e6	1.73e6	1.16e6	1.29e6	Nlg3	SID104192332
1.65e6	1.83e6	1.33e6	1.51e6	Nlg3	SID104192366
1.38e6	1.45e6	4.89e5	9.40e5	Cpr	SID104183085
4.01e5 (active)		4.25e5		stg	SID104196863
1.46e6	1.47e6	1.41e6	1.28e6	Uev1A	SID104189555
8.04e5 (active)	1.07e6	7.63e5	9.07e5	Rpt5	SID104196634
1.47e6	1.51e6	1.28e6	1.27e6	CG9951	SID104190897
1.50e6	1.49e6	1.33e6	1.29e6	Or42a	SID104184704
1.61e6	1.58e6	1.15e6	1.41e6	Shaw	SID104180225
1.56e6	1.64e6	1.05e6	1.19e6	Shaw	SID104180580
1.54e6	1.52e6	9.99e5	1.06e6	nis	SID104180082
1.76e6	1.79e6	1.08e6	1.24e6	CR14798	SID104197748
1.58e6	1.61e6	1.30e6	1.38e6	CG7156	SID104195999
5.30e5		8.00e5		CG1607	SID104194922

Look-ups from the entries so far:
Value for NdufV3 [SID104199215] in “S2R+ cell number, rep 2”: 1.32e6
Entry of otu [SID104198603] under “Kc cell number, rep 1”: 1.53e6
ZAP3 [SID104198041], Kc cell number, rep 2 = 1.64e6
Under “Kc cell number, rep 1”, mthl4 [SID104186790] has 1.66e6
For “S2R+ cell number, rep 1”, Su(var)3-7 [SID104196664] shows 1.15e6
Value of CR14798 [SID104197748] under “S2R+ cell number, rep 2”: 1.24e6
